In this assay the target is T1, chaperonin containing TCP1 subunit 3 (CCT3) (human (endogenous in 97L and LM3)) (UniProt P49368).
T1 sequence: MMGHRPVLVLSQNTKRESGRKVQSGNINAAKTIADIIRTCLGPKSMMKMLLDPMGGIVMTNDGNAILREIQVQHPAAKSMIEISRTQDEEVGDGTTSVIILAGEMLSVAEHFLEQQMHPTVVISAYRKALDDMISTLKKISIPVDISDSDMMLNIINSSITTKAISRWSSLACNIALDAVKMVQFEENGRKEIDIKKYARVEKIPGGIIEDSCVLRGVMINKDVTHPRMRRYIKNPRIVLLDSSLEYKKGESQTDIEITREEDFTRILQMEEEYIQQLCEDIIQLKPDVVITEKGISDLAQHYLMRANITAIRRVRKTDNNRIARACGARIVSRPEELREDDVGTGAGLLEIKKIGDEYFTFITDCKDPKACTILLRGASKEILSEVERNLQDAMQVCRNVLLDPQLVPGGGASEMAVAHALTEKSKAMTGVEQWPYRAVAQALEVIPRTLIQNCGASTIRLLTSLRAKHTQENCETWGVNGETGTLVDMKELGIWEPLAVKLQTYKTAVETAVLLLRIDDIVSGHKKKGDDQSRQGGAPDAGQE
Description: affinity purification with mass spectrometry.

By UniProt entry, the sequences of proteins in these tests, tags left out.
UniProt P48643: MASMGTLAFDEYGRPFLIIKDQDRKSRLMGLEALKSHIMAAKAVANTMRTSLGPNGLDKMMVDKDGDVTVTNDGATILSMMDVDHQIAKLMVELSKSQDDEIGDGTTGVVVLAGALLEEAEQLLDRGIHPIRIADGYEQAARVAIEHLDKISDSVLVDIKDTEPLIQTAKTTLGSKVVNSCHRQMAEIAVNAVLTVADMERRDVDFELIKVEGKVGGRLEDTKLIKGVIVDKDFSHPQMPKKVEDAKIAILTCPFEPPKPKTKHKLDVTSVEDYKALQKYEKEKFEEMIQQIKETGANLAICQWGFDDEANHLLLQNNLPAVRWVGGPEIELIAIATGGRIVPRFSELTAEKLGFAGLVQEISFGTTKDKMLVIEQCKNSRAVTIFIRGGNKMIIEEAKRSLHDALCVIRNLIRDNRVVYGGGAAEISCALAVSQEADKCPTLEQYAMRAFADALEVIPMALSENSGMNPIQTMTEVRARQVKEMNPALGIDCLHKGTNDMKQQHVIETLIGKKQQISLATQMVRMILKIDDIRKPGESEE
UniProt O43707: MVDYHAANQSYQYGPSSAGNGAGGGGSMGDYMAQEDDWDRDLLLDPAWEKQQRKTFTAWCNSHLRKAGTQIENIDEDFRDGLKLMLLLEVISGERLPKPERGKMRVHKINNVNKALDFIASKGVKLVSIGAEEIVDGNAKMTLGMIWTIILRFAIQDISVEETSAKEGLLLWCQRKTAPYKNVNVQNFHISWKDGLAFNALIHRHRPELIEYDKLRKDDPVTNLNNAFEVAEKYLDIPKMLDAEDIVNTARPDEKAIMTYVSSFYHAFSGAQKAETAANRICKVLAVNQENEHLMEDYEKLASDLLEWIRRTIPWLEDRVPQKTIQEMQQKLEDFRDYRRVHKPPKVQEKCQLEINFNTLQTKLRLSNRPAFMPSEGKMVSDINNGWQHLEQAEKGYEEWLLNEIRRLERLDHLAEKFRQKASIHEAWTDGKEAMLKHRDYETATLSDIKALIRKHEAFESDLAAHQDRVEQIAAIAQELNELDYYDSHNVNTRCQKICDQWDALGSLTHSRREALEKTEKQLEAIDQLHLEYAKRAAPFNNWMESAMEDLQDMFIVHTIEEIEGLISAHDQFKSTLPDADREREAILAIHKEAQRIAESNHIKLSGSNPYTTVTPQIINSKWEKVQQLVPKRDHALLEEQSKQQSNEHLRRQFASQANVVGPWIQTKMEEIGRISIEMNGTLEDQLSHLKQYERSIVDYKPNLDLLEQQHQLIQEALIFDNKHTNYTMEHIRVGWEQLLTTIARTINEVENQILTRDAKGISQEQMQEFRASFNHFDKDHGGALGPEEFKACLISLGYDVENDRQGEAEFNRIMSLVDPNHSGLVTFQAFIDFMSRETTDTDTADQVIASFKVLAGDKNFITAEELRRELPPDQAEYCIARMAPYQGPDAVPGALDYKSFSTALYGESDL

No constants are given. Whether binding was seen depends on the method and setting. Binding seen in cells or lysates may run through a third protein. Here binding means that the protein was enriched with, or labelled near, the bait; the list need not be complete.

Results on two substances are retold here after doi:10.1101/2023.12.14.571783.

CCT5 (from UniProt P48643 1-541): the binding entry is given as “binds”.
Under “alpha-actinin-4 (ACTN4) (from UniProt O43707 1-911)” stands “binds”.
